This note sets out measurements from article PMC8234106.

These are yes or no findings as the source states them, for the method shown. In cells and extracts the contact can be indirect. A result given as binding can be weak or reduced; the word gives no strength. Tags and fused reporters may be left off the sequences shown.

This test deals with myc-DDK tagged rat TMEM16F (rTMEM16F) (rat). The experiment in a line: co-IP; lysate of 16F-null cells co-transfected with myc tagged rP2X7 and myc-DDK tagged rTMEM16F at a cDNA ratio of 1:0.05 (5 ug and 0.25 ug); lysis in 20 mM HEPES, 100 mM NaCl, 1% Triton-X, 5 mM EDTA at 4 °C; precipitated with anti-FLAG antibody and Protein G Sepharose; washes with 500 mM NaCl; Western blot with anti-c-myc antibody. Background: A western blot detects proteins with antibodies after separation by electrophoresis.

B1: myc tagged rat P2X7 receptor (rP2X7) (receptor, UniProt Q64663 1-595)
chain: MPACCSWNDVFQYETNKVTRIQSVNYGTIKWILHMTVFSYVSFALMSDKLYQRKEPLISSVHTKVKGVAEVTENVTEGGVTKLVHGIFDTADYTLPLQGNSFFVMTNYLKSEGQEQKLCPEYPSRGKQCHSDQGCIKGWMDPQSKGIQTGRCIPYDQKRKTCEIFAWCPAEEGKEAPRPALLRSAENFTVLIKNNIDFPGHNYTTRNILPGMNISCTFHKTWNPQCPIFRLGDIFQEIGENFTEVAVQGGIMGIEIYWDCNLDSWSHRCQPKYSFRRLDDKYTNESLFPGYNFRYAKYYKENGMEKRTLIKAFGVRFDILVFGTGGKFDIIQLVVYIGSTLSYFGLATVCIDLIINTYASTCCRSRVYPSCKCCEPCAVNEYYYRKKCEPIVEPKPTLKYVSFVDEPHIWMVDQQLLGKSLQDVKGQEVPRPQTDFLELSRLSLSLHHSPPIPGQPEEMQLLQIEAVPRSRDSPDWCQCGNCLPSQLPENRRALEELCCRRKPGQCITTSELFSKIVLSREALQLLLLYQEPLLALEGEAINSKLRHCAYRSYATWRFVSQDMADFAILPSCCRWKIRKEFPKTQGQYSGFKYPY
With B1, the binding result was “binds”.
